Measurements published in PMC5366950.
No constants are given. Whether binding was seen depends on the method and setting. In cells and extracts the contact can be indirect. Some results given as binding are weak or reduced against the parent protein; the word gives no strength.

Protein sequences, listed by entry. Tags and fused reporters are not part of them.
UniProt Q9BYB0: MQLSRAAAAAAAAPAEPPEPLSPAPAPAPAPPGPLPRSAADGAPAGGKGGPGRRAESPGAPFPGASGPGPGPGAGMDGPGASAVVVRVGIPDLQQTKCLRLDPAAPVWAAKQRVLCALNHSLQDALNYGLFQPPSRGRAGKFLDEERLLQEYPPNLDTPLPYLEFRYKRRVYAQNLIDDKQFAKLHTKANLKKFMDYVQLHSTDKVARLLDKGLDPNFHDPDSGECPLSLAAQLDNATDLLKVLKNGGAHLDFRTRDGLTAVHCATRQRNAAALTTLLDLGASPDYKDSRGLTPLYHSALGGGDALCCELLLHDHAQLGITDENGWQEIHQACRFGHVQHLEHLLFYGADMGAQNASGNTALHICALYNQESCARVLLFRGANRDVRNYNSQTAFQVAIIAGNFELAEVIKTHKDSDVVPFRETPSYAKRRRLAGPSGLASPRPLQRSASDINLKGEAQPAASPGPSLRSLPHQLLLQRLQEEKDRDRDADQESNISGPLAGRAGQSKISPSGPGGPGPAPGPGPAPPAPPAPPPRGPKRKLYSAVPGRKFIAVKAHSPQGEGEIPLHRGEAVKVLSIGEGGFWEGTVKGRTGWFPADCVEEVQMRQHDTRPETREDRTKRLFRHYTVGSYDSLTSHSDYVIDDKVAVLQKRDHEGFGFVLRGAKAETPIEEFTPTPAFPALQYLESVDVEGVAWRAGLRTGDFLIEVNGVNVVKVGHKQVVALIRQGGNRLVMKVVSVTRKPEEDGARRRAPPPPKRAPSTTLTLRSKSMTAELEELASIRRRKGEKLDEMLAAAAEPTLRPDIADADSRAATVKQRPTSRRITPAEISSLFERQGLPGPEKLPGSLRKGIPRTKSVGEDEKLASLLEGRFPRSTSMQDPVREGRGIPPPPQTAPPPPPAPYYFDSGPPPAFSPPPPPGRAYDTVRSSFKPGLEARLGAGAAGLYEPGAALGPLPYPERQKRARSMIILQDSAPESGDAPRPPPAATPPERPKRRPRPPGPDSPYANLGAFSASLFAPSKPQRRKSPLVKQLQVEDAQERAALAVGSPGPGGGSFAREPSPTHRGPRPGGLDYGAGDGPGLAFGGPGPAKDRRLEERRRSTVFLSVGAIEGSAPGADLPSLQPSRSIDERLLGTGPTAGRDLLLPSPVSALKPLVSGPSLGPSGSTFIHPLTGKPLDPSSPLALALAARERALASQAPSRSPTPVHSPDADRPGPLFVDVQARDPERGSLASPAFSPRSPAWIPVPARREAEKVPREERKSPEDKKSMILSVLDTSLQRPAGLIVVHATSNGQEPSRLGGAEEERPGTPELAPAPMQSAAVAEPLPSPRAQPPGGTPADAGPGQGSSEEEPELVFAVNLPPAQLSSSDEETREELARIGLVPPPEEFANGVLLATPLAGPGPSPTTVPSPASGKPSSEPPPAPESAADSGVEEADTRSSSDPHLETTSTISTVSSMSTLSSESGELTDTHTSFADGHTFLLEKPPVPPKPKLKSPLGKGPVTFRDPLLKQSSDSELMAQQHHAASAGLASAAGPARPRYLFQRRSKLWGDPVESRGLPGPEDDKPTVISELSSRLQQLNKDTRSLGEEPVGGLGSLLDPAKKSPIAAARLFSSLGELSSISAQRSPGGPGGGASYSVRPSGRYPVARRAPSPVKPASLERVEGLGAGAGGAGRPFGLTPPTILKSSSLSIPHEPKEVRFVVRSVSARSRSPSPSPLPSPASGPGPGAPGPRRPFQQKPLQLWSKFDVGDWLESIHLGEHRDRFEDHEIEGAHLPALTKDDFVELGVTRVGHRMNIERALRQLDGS
UniProt Q4ACU6: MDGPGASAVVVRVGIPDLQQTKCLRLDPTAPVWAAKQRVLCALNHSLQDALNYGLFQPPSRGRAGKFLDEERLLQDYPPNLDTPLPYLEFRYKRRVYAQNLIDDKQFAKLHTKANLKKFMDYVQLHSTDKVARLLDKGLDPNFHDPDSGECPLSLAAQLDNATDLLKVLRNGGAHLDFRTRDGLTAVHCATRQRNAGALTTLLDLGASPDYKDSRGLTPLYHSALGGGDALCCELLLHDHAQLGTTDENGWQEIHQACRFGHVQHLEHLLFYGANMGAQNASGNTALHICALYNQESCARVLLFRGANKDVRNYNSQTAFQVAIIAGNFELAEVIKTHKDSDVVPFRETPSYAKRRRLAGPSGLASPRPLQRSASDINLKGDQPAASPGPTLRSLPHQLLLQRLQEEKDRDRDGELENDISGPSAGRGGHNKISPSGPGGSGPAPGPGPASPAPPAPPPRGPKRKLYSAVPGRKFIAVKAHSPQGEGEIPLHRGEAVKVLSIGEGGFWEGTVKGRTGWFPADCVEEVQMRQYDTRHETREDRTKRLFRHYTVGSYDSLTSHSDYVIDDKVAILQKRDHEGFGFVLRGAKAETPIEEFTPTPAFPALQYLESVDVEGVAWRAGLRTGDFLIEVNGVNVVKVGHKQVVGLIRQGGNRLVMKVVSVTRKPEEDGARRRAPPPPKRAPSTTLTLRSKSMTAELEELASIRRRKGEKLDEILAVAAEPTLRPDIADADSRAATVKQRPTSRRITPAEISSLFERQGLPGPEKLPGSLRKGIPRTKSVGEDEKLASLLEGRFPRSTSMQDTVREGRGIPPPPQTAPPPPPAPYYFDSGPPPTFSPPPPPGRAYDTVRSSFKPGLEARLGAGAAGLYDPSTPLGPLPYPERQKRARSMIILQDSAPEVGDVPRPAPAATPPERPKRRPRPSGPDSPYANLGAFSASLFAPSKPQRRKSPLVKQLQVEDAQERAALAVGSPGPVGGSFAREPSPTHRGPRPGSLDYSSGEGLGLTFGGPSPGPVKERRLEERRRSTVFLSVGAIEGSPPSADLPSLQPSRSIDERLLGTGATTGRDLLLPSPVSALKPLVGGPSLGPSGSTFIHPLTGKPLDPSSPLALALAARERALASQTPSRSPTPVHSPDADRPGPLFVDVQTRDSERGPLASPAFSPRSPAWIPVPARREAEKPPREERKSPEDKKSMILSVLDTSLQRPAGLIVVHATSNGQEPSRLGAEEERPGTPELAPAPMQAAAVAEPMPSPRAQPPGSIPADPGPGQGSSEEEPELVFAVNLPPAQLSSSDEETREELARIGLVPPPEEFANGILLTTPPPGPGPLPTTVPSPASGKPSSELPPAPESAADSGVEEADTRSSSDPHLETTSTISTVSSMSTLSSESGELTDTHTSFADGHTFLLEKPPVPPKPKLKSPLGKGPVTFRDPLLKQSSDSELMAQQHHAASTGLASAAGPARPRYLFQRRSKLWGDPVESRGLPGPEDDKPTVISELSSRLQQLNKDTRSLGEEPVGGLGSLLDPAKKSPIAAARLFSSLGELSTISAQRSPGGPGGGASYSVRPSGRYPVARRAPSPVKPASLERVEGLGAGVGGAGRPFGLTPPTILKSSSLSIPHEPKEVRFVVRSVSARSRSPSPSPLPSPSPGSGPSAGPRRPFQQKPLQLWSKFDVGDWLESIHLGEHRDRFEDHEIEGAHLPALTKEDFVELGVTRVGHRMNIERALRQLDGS

B1: ZIP4 (SLC39A4) (protein, UniProt Q6P5W5 23-647)
chain: SPPAGLLSLLTSGQGALDQEALGGLLNTLADRVHCANGPCGKCLSVEDALGLGEPEGSGLPPGPVLEARYVARLSAAAVLYLSNPEGTCEDARAGLWASHADHLLALLESPKALTPGLSWLLQRMQARAAGQTPKMACVDIPQLLEEAVGAGAPGSAGGVLAALLDHVRSGSCFHALPSPQYFVDFVFQQHSSEVPMTLAELSALMQRLGVGREAHSDHSHRHRGASSRDPVPLISSSNSSSVWDTVCLSARDVMAAYGLSEQAGVTPEAWAQLSPALLQQQLSGACTSQSRPPVQDQLSQSERYLYGSLATLLICLCAVFGLLLLTCTGCRGVTHYILQTFLSLAVGAVTGDAVLHLTPKVLGLHTHSEEGLSPQPTWRLLAMLAGLYAFFLFENLFNLLLPRDPEDLEDGPCGHSSHSHGGHSHGVSLQLAPSELRQPKPPHEGSRADLVAEESPELLNPEPRRLSPELRLLPYMITLGDAVHNFADGLAVGAAFASSWKTGLATSLAVFCHELPHELGDFAALLHAGLSVRQALLLNLASALTAFAGLYVALAVGVSEESEAWILAVATGLFLYVALCDMLPAMLKVRDPRPWLLFLLHNVGLLGGWTVLLLLSLYEDDITF
B2: ZIP4 (mouse GI epithelium) (protein, UniProt Q78IQ7 23-660)
chain: RPRNLLSLLALGQGALDRLELDGLLNTLVARVHCTDGPCEKCLSVENVLALGKPDKPQPAPESVLESRHIIYLSAAAALYLNNPEKTCKDIQAGLLASHVDDYLATLESPEAMTLGLSQLLQKIEAHAASQPTGEKTCVDLPQLLEEAEAAGVSKSAGLVLTALLDHVINGSCFQGLPSPQYFVDFVFRLHSSDPPNITLHELENLMHHLGVGGEDHSDHDDHGDHADHSHPDRKASHQDSELHTPHNSNSSVWDTLCLSAKDIMAVYGLSEEAGVSPQAWAQLTPALVQQQLSGACSPYPTIRIQDQLSQTERYLYGSLATLLICLCAVFGLLLLTCAKCSTATHYIMQTFLSLAVGALTGDALLHLIPKVLGLHTHGGEGHTHEEEVGVGGQATWRLLAVLGGFYIFFLFESFFNLLLPRDQDSEKDGPCSHGGHSHGISLQLAPSNLRQSKQTHESSRSDLVAEETPELLNPETRRLRAELRLLPYLITLGDAVHNFADGLAVGAAFSSSWKTGLATSLAVFCHELPHELGDFAALLHAGLSVKRALLLNLASALTAFAGLYVALAVGVGEEGEAWILAVATGLFLYVALCDMLPAMMNVRDQRPWLLFLLHNVGLLGGWTVLLLLSLYEDNITF
B3: ZIP2 (mouse GI epithelium) (protein, UniProt G3X943 1-309)
chain: MEVLLGVKIGCLLALLVLTLGCGLTPIYVKWFQMDAATGHHHRVLSLLGCTSAGVFLGAGLMHMTAEALEGIESEIQKFVEQNSTGSKGNSSRDAASSYVEYPYGELVISLGFFFVFLLESLALQCCHGAAGGSTVQEEEWGGTHAFGFHKHPAVPSPSRGPLRALVLLLSLSFHSVFEGLAVGLQATVAATIQLCVAVLAHKGLVVFSVGLRLGKIGTGPRWATFCILSLALMSPVGLALGLTVAGGASGQTQGLAQAVLEGIAAGTFLYVTFLEILPRELACPEAPLAKYSCVAAGFAFMALIALWA

Tests used:
[1] = target: SHANK3 (SH3 and multiple ankyrin repeat domains 3) (human (endogenous in hiPSC-derived enterocytes)) (UniProt Q9BYB0); assay: co-IP; lysate of hiPSC-derived enterocyte-like cells (Triton X Lysis Buffer, 30 min on ice); 10 ul SHANK3 antibody serum, uMACS columns and Protein G MicroBeads; blots with anti-ZIP4 and anti-ZIP2; control without SHANK3 antibody on the beads
[2] = target: SHANK3 (mouse GI epithelium) (mouse (endogenous in GI epithelium)) (UniProt Q4ACU6); assay: co-IP; protein lysate from mouse GI epithelium; 10 ul SHANK3 antibody serum, uMACS columns and Protein G MicroBeads; blots with anti-ZIP4 and anti-ZIP2; control without SHANK3 antibody on the beads

| Binder | binding [1] | binding [2] |
| --- | --- | --- |
| B1 | binds |  |
| B2 |  | binds |
| B3 |  | binds weakly |
